According to patent publication US10011573B2, “Human androgen receptor DNA-binding domain (DBD) compounds as therapeutics and methods for their use” (The University of British Columbia, priority 2014, dated 2018):
Substitutions are numbered along the chain they refer to. “Also recorded” adds a separate entry of the source.

Assays:
AR Y594D mutant = target: T1, AR Y594D mutant (Homo sapiens, UniProt P10275, Y594D); experiment: ARR3tk-luciferase reporter assay in PC3 cells, AR Y594D; format: cell-based
T1 construct: expressed in transfected cells; host or cells: PC3
T1 sequence (P10275 1-920 Y594D): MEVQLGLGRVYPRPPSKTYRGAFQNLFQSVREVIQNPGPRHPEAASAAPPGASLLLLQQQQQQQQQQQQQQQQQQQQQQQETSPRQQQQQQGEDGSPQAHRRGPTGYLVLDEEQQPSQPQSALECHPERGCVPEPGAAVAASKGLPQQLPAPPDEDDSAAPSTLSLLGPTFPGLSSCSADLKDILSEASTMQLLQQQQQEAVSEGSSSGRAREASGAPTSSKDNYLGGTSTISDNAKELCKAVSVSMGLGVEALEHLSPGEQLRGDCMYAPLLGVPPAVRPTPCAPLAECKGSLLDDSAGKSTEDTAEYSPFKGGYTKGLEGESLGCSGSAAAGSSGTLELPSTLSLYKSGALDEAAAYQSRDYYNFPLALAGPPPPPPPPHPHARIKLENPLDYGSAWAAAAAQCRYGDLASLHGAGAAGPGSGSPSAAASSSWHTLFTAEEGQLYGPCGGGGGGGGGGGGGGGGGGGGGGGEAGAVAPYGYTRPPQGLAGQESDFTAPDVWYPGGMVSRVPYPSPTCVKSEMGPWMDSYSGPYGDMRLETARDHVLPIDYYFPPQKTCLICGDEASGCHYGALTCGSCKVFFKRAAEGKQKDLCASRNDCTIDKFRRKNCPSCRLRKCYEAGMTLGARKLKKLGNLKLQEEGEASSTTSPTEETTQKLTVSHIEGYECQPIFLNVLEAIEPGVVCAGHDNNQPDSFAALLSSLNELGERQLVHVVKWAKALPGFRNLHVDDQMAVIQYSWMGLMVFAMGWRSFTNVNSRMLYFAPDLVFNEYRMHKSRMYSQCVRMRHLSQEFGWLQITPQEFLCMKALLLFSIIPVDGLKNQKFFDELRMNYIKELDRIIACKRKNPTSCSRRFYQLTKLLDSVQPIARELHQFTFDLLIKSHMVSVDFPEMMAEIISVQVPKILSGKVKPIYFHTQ
Protocol: (§1) 8. Mutation Studies: The residues in the predicted binding site were mutated using the Quickchange™ Site-Directed Mutagenesis Kit as per the instructions.
(§2) 9. Transient Transfection: The PC3/MCF7 cells were seeded into a 96-well plate (2,000 cells/well). After 24 hrs, the wild-type AR (50 ng/well)/AR mutants and AR3TK-luciferase plasmids (1:3) were co-transfected into PC3 cells or ERE-luciferase (50 ng/well) was transfected into MCF7 cells using transfection reagent TT20. 24 hrs after the transfection, the cells were treated with the compounds at various concentrations. And 24 hrs later, the cells were lysed and the reading was taken using a luminometer.

AR Q592D mutant = target: T2, AR Q592D mutant (Homo sapiens, UniProt P10275, Q592D); experiment: ARR3tk-luciferase reporter assay in PC3 cells, AR Q592D; format: cell-based
T2 construct: Full-length human AR (hARWT) or splice variant (AR-V7) was encoded on a pcDNA3.1 expression plasmid; expressed in transfected cells; host or cells: PC3
T2 sequence (P10275 1-920 Q592D): T1 sequence (P10275 1-920 Y594D) with Q592D, D594Y
Protocol: as §1, §2

PARP = experiment: Western blots against PARP / cleaved PARP (apoptosis); format: cell-based, human; conditions: PC3 luciferase assay lysates
Protocol: Cell lysates (40 μl) from luciferase assays (96-well plate) were separated on a 10% SDS-polyacrylamide mini gel. Protein was transferred to methanol-charged PVDF membranes and probed with anti-AR441 (mouse, Sigma™) monoclonal primary antibody. Blots were also probed with polyclonal anti-actin (rabbit, Sigma™) to show equal loading and polyclonal anti-PARP/anti-cleaved PARP (rabbit, Sigma™) to test for induction of apoptosis. Lysates from CWR-R1 cells were additionally probed with polyclonal anti-FKBP5 (rabbit, Sigma™) following 2 days of incubation with compounds.

AR-V7Y594D = target: T3, AR-V7Y594D (Homo sapiens, UniProt P10275, Y594D); experiment: ARR3tk-luciferase reporter assay in PC3 cells, AR-V7 Y594D
T3 sequence (P10275 1-644 isoform P10275-3 Y594D): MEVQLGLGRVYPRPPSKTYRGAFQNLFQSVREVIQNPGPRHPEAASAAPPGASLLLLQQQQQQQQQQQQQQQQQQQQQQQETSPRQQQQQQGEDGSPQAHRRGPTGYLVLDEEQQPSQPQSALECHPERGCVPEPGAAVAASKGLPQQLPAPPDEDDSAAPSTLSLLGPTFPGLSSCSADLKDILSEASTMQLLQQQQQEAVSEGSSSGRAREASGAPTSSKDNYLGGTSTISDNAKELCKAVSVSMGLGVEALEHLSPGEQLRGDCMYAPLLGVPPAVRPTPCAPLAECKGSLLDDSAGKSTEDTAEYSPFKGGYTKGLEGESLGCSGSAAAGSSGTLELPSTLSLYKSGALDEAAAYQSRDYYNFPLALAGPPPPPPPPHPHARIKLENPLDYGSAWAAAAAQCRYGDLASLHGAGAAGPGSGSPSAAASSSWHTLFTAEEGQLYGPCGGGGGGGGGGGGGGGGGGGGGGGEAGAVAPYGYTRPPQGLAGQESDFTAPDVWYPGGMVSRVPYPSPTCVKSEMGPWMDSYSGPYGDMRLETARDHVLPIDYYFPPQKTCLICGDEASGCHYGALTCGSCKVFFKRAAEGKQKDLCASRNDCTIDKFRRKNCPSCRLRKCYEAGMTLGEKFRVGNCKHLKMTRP

`Cc1cc(/C=C/c2ccc3cc(N(C)C)ccc3[n+]2C)c(C)n1-c1ccccc1` [Compound 14337, pyrvinium, reference compound] was tested, and the “inhibition of Y594D AR luciferase expression” value (AR Y594D mutant) was “strongly inhibited; also recorded: inability to inhibit”, the “inhibition of Q592D AR luciferase expression” value (AR Q592D mutant) was “strongly inhibited; also recorded: inability to inhibit” and the “toxicity / induction of apoptosis (PARP cleavage)” value (PARP) was “strongly induces apoptosis”. The “toxicity / induction of apoptosis (PARP cleavage)” value (PARP; listed as pyrvinium) was “general toxicity” and the “inhibition of AR-V7Y594D transcriptional activity” value (AR-V7Y594D) was “strongly inhibited”.
